{"source": "patent US8729047B2", "about": "“Compositions for inhibiting redox-sensitive GTPases” (Board of Regents, The University of Texas System, priority 2010, dated 2014)", "system": "Ras", "test": "Co-IP ESI-MS of Ras-bound nucleotide / adduct in T24 or HT1080 cells", "type": "cell-based, human", "details": "6-TG, FIG. 9", "data": [{"smiles": "Nc1nc2nc[nH]c2c(=S)[nH]1", "note": "[6-TG, 6-thioguanine]", "values": [{"measurement": "time from initial treatment until detectable amount of 6-TGNP bound to Ras", "result": "8 to 10", "unit": "days"}]}]}
